Measured values taken from the supplement of paper PMC11098740.
± gives the standard deviation of the averaged measurements. The list shows a part of the results. Many values rest on one well or one pass, so single values are uncertain.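 Pooled together, 41 HAP1 clones carry intronic fluorescent tags on 61 cancer-associated proteins, and each clone is recognized by its imaging pattern. Measurements are benchmarked against DMSO-treated control wells. dBET6, a BRD4 degrader, served as the positive control.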

biological target: BRD4 (intron 10 mScarlet tag, HAP1) (UniProt O60885); test: BRD4 median nuclear fluorescence intensity change vs DMSO (log2 fold change); higher = more BRD4 protein; settings: 6 h

C[C@]12CCC(=O)C=C1C=C[C@@H]1[C@@H]2CC[C@@]2(C)[C@H]1CC[C@@]21CCC(=O)O1 [canrenone] (9.99944 µM) and CC(=O)O[C@]1(C(C)=O)CC[C@H]2[C@@H]3CCC4=CC(=O)CCC4=C3[C@@H](c3ccc(N(C)C)cc3)C[C@@]21C [ulipristal acetate] (9.99909 µM) are within 0.2 log units of each other in “BRD4 median nuclear fluorescence intensity change (log2)” value: 0.0224 for the first, 0.0406 for the second.

Nc1cc(N2CCCCC2)nc(N)[n+]1[O-] [minoxidil] (9.95605 µM) and O=C(c1ccc(OCCN2CCCCC2)cc1)c1c(-c2ccc(O)cc2)sc2cc(O)ccc12 [raloxifene] (20 µM) are within 0.2 log units of each other in “BRD4 median nuclear fluorescence intensity change (log2)” value: 0.0651 ± 0.11 for the first, 0.0692 for the second.

CC(=O)NO [acetohydroxamic acid] (10 µM) and Cc1ccccc1C(=O)Nc1ccc(C(=O)N2CCCC(O)c3cc(Cl)ccc32)c(C)c1 (centres undefined) [tolvaptan] (10 µM) are within 0.2 log units of each other in “BRD4 median nuclear fluorescence intensity change (log2)” value: 0.171 for the first, 0.0926 for the second.

Cc1ccc(NC(=O)c2ccc(CN3CC[C@H](N(C)C)C3)c(C(F)(F)F)c2)cc1Nc1nccc(-c2cncnc2)n1 [bafetinib] (10 µM) and CC1=NN(c2ccc(C)c(C)c2)C(=O)/C1=N\Nc1cccc(-c2cccc(C(=O)O)c2)c1O [eltrombopag] (10 µM) are within 0.2 log units of each other in “BRD4 median nuclear fluorescence intensity change (log2)” value: 0.0393 for the first, -0.00732 for the second.

CC(C)C[C@H](NC(=O)[C@H](CCc1ccccc1)NC(=O)CN1CCOCC1)C(=O)N[C@@H](Cc1ccccc1)C(=O)N[C@@H](CC(C)C)C(=O)[C@@]1(C)CO1 [carfilzomib] (0.00117 µM) was tested, and the “BRD4 median nuclear fluorescence intensity change (log2)” value was -0.00653 ± 0.038.
